Laboratory results: PubChem BioAssay AID1159591 (NIAID, 2016)

Aim: 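TLR7/8 agonist R848 and Tnf expression after gene knock-down in mouse macrophages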
System: mouse RAW264.7 G9 macrophage reporter clone (GFP-p65, Tnf promoter-mCherry)
Reagent: single siRNA against mouse genes
Time to read-out: cells assayed 48 to 72 hours after siRNA transfection; R848 for 16 hours before fixing
Conditions: R848 (TLR7/8 agonist) for 16 hours before fixation; dose not given
Detection: 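mCherry Tnf promoter reporter in nuclei imaged after 16 hours of R848, background removed, robust z relative to non-targeting controls using plate median and MAD, replicate average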
Direction: mean Tnf reporter z-score: higher = stronger Tnf promoter reporter signal than controls
Hit rule: 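Activity score from absolute z: steps above 1, 1.5, 2 and 2.5 give 25 to 100; active cut not stated, but active genes here sit near z -1.5 or below, or 1.5 or above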
Calls: active = reporter clearly up or down; inactive = little reporter change
Shown is an unselected part of 756 reagents tested. Of all reagents, 130 (17%) were called active. 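Active calls include both lower and higher Tnf reporter signal.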 The numbers tell different reagents against one gene apart. Reagent sequences are not shown. Not given: the amount of reagent.

The opening 11 records as a preview:
gene | reagent | mean Tnf reporter z-score | Call
Relb (GeneID 19698) | 1 | -0.23 | inactive
Relb (GeneID 19698) | 2 | 0.283 | inactive
Relb (GeneID 19698) | 3 | -1.47 | inactive
Relb (GeneID 19698) | 4 | 0.587 | inactive
Relb (GeneID 19698) | 5 | -1.47 | inactive
Relb (GeneID 19698) | 6 | -0.484 | inactive
Tlr9 (GeneID 81897) | 1 | 0.168 | inactive
Tlr9 (GeneID 81897) | 2 | -1.48 | inactive
Tlr9 (GeneID 81897) | 3 | 0.988 | inactive
Tlr9 (GeneID 81897) | 4 | -0.119 | inactive
Tlr9 (GeneID 81897) | 5 | -0.791 | inactive

Results, from the start:
gene | reagent | mean Tnf reporter z-score | Call
Relb (GeneID 19698) | 1 | -0.23 | inactive
Relb (GeneID 19698) | 2 | 0.283 | inactive
Relb (GeneID 19698) | 3 | -1.47 | inactive
Relb (GeneID 19698) | 4 | 0.587 | inactive
Relb (GeneID 19698) | 5 | -1.47 | inactive
Relb (GeneID 19698) | 6 | -0.484 | inactive
Tlr9 (GeneID 81897) | 1 | 0.168 | inactive
Tlr9 (GeneID 81897) | 2 | -1.48 | inactive
Tlr9 (GeneID 81897) | 3 | 0.988 | inactive
Tlr9 (GeneID 81897) | 4 | -0.119 | inactive
Tlr9 (GeneID 81897) | 5 | -0.791 | inactive
Tlr9 (GeneID 81897) | 6 | -0.84 | inactive
Ube2v1 (GeneID 66589) | 1 | 0.102 | inactive
Ube2v1 (GeneID 66589) | 2 | -0.00361 | inactive
Ube2v1 (GeneID 66589) | 3 | -0.64 | inactive
Ube2v1 (GeneID 66589) | 4 | 0.163 | inactive
Ube2v1 (GeneID 66589) | 5 | 2.26 | active
Ube2v1 (GeneID 66589) | 6 | -1.31 | inactive
Cd14 (GeneID 12475) | 1 | -1.54 | active
Cd14 (GeneID 12475) | 2 | -2.22 | active
Cd14 (GeneID 12475) | 3 | -0.946 | inactive
Cd14 (GeneID 12475) | 4 | -1.58 | active
Cd14 (GeneID 12475) | 5 | -1.18 | inactive
Cd14 (GeneID 12475) | 6 | 0.684 | inactive
Ifnar2 (GeneID 15976) | 1 | -0.412 | inactive
Ifnar2 (GeneID 15976) | 2 | -0.553 | inactive
Ifnar2 (GeneID 15976) | 3 | 0.0225 | inactive
Ifnar2 (GeneID 15976) | 4 | 0.325 | inactive
Ifnar2 (GeneID 15976) | 5 | -0.256 | inactive
Ifnar2 (GeneID 15976) | 6 | -1.81 | active
Akt3 (GeneID 23797) | 1 | -1.13 | inactive
Akt3 (GeneID 23797) | 2 | 0.819 | inactive
Akt3 (GeneID 23797) | 3 | -0.729 | inactive
Akt3 (GeneID 23797) | 4 | -0.59 | inactive
Akt3 (GeneID 23797) | 5 | -0.0273 | inactive
Akt3 (GeneID 23797) | 6 | -0.981 | inactive
Tlr2 (GeneID 24088) | 1 | 0.0227 | inactive
Tlr2 (GeneID 24088) | 2 | -0.222 | inactive
Tlr2 (GeneID 24088) | 3 | 1.26 | inactive
Tlr2 (GeneID 24088) | 4 | 0.885 | inactive
Tlr2 (GeneID 24088) | 5 | -0.861 | inactive
Tlr2 (GeneID 24088) | 6 | 1.09 | inactive
Tbkbp1 (GeneID 73174) | 1 | 0.463 | inactive
Tbkbp1 (GeneID 73174) | 2 | -1.49 | inactive
Tbkbp1 (GeneID 73174) | 3 | 0.716 | inactive
Tbkbp1 (GeneID 73174) | 4 | 0.877 | inactive
Tbkbp1 (GeneID 73174) | 5 | 0.561 | inactive
Tbkbp1 (GeneID 73174) | 6 | -0.132 | inactive
Peli1 (GeneID 67245) | 1 | 0.563 | inactive
Peli1 (GeneID 67245) | 2 | 0.119 | inactive
Peli1 (GeneID 67245) | 3 | 0.668 | inactive
Peli1 (GeneID 67245) | 4 | 1.27 | inactive
Peli1 (GeneID 67245) | 5 | -0.961 | inactive
Peli1 (GeneID 67245) | 6 | -1.79 | active
Map2k7 (GeneID 26400) | 1 | 1.26 | inactive
Map2k7 (GeneID 26400) | 2 | -0.104 | inactive
Map2k7 (GeneID 26400) | 3 | -1.54 | active
Map2k7 (GeneID 26400) | 4 | -0.917 | inactive
Map2k7 (GeneID 26400) | 5 | -1.01 | inactive
Map2k7 (GeneID 26400) | 6 | -0.791 | inactive
Tlr4 (GeneID 21898) | 1 | -0.353 | inactive
Tlr4 (GeneID 21898) | 2 | 0.556 | inactive
Tlr4 (GeneID 21898) | 3 | -1 | inactive
Tlr4 (GeneID 21898) | 4 | 1.38 | inactive
Tlr4 (GeneID 21898) | 5 | 0.626 | inactive
Tlr4 (GeneID 21898) | 6 | 1.08 | inactive
Lbp (GeneID 16803) | 1 | 0.702 | inactive
Lbp (GeneID 16803) | 2 | -0.0345 | inactive
Lbp (GeneID 16803) | 3 | -0.568 | inactive
Lbp (GeneID 16803) | 4 | -0.14 | inactive
Lbp (GeneID 16803) | 5 | 0.248 | inactive
Lbp (GeneID 16803) | 6 | 0.84 | inactive
Nfkbib (GeneID 18036) | 1 | -0.537 | inactive
Nfkbib (GeneID 18036) | 2 | -0.691 | inactive
Nfkbib (GeneID 18036) | 3 | 0.999 | inactive
Nfkbib (GeneID 18036) | 4 | -0.813 | inactive
Nfkbib (GeneID 18036) | 5 | -0.184 | inactive
Nfkbib (GeneID 18036) | 6 | -0.837 | inactive
Il12a (GeneID 16159) | 1 | -0.00904 | inactive
Il12a (GeneID 16159) | 2 | -0.814 | inactive
Il12a (GeneID 16159) | 3 | -1.01 | inactive
Il12a (GeneID 16159) | 4 | -0.842 | inactive
Il12a (GeneID 16159) | 5 | -0.878 | inactive
Il12a (GeneID 16159) | 6 | -0.2 | inactive
Sp1 (GeneID 20683) | 1 | -0.966 | inactive
Sp1 (GeneID 20683) | 2 | -1.43 | inactive
Sp1 (GeneID 20683) | 3 | -2.47 | active
Sp1 (GeneID 20683) | 4 | -1.23 | inactive
Sp1 (GeneID 20683) | 5 | 0.113 | inactive
Sp1 (GeneID 20683) | 6 | -1.83 | active
Tirap (GeneID 117149) | 1 | 0.515 | inactive
Tirap (GeneID 117149) | 2 | 0.287 | inactive
Tirap (GeneID 117149) | 3 | -1.4 | inactive
Tirap (GeneID 117149) | 4 | 1.49 | inactive
Tirap (GeneID 117149) | 5 | 0.636 | inactive
Tirap (GeneID 117149) | 6 | -0.687 | inactive
Ikbkg (GeneID 16151) | 1 | 0.028 | inactive
Ikbkg (GeneID 16151) | 2 | -1.24 | inactive
Ikbkg (GeneID 16151) | 3 | -0.33 | inactive
Ikbkg (GeneID 16151) | 4 | -1.84 | active
Ikbkg (GeneID 16151) | 5 | -1.5 | active
Ikbkg (GeneID 16151) | 6 | -0.0167 | inactive
Pik3cb (GeneID 74769) | 1 | 0.617 | inactive
Pik3cb (GeneID 74769) | 2 | -1.86 | active
Pik3cb (GeneID 74769) | 3 | -0.498 | inactive
Pik3cb (GeneID 74769) | 4 | 0.303 | inactive
Pik3cb (GeneID 74769) | 5 | -3.78 | active
Pik3cb (GeneID 74769) | 6 | -0.659 | inactive
Ripk3 (GeneID 56532) | 1 | -0.2 | inactive
Ripk3 (GeneID 56532) | 2 | -0.0756 | inactive
Ripk3 (GeneID 56532) | 3 | 0.775 | inactive
Ripk3 (GeneID 56532) | 4 | -0.615 | inactive
Ripk3 (GeneID 56532) | 5 | 1.12 | inactive
Ripk3 (GeneID 56532) | 6 | -1.31 | inactive
Cxcl9 (GeneID 17329) | 1 | -0.0618 | inactive
Cxcl9 (GeneID 17329) | 2 | -0.39 | inactive
Cxcl9 (GeneID 17329) | 3 | -0.0112 | inactive
Cxcl9 (GeneID 17329) | 4 | -0.123 | inactive
Cxcl9 (GeneID 17329) | 5 | -0.325 | inactive
Cxcl9 (GeneID 17329) | 6 | 0.195 | inactive
Tlr1 (GeneID 21897) | 1 | 0.696 | inactive
Tlr1 (GeneID 21897) | 2 | 0.25 | inactive
Tlr1 (GeneID 21897) | 3 | -0.483 | inactive
Tlr1 (GeneID 21897) | 4 | 0.39 | inactive
Tlr1 (GeneID 21897) | 5 | -0.435 | inactive
Tlr1 (GeneID 21897) | 6 | -0.558 | inactive
Itgam (GeneID 16409) | 1 | -0.376 | inactive
Itgam (GeneID 16409) | 2 | -0.681 | inactive
Itgam (GeneID 16409) | 3 | -0.0876 | inactive
Itgam (GeneID 16409) | 4 | 0.239 | inactive
Itgam (GeneID 16409) | 5 | -0.745 | inactive
Itgam (GeneID 16409) | 6 | -0.404 | inactive
Tnf (GeneID 21926) | 1 | -0.376 | inactive
Tnf (GeneID 21926) | 2 | 1.3 | inactive
Tnf (GeneID 21926) | 3 | -0.437 | inactive
Tnf (GeneID 21926) | 4 | -0.0809 | inactive
Tnf (GeneID 21926) | 5 | 0.426 | inactive
Tnf (GeneID 21926) | 6 | -1.62 | active
Tnfaip3 (GeneID 21929) | 1 | 1.07 | inactive
Tnfaip3 (GeneID 21929) | 2 | -0.0461 | inactive
Tnfaip3 (GeneID 21929) | 3 | 0.312 | inactive
Tnfaip3 (GeneID 21929) | 4 | 0.0599 | inactive
Tnfaip3 (GeneID 21929) | 5 | 2.29 | active
Tnfaip3 (GeneID 21929) | 6 | 0.229 | inactive
